Laboratory results: patent US20090253152A1 (OREGON HEALTH AND SCIENCE UNIVERSITY, published 2009)
Results are given in words; binding and its absence hold for the method and conditions named. Binding seen in cells or lysates may run through a third protein. Some results given as binding are weak or reduced against the parent protein; the word gives no strength. Tags and fused reporters may be left off the sequences shown.

Columns and labels:
[1] = target: T1, IGFBP-3 receptor (P4.33) as the construct EGFP:4-33, expressed in Hs578T breast cancer cells (human) (UniProt Q86XT9); test: co-immunoprecipitation: lysate of Hs578T cells transfected with EGFP:4-33 incubated with the IGFBP-3 protein, precipitated with anti-GFP, immunoblot with anti-IGFBP-3
T1 sequence (looked up): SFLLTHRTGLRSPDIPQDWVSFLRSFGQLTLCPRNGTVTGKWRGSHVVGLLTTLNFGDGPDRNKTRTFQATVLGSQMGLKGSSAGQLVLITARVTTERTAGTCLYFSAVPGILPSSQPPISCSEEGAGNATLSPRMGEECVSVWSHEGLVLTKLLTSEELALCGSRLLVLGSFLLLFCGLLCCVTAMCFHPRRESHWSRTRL

[2] = target: T1, IGFBP-3 receptor (P4.33) as the construct EGFP:4-33, expressed in Hs578T breast cancer cells (human); test: co-immunoprecipitation with anti-GFP from Hs578T lysate expressing EGFP:4-33, anti-IGFBP-3 immunoblot

Row | Substance | binding [1] | binding [2]
1 | wild-type full-length human IGFBP-3 with C-terminal FLAG epitope (Cos-7 or baculovirus expressed) (from UniProt P17936 28-291) | binds | 
2 | IGFBP-3 G56G80G81 triple mutant (I56G, L80G, L81G), FLAG-tagged (Cos-7 or baculovirus expressed) (from UniProt P17936 28-291) | binds | binds
3 | IGFBP-3 G80G81 double mutant (L80G, L81G), FLAG-tagged (Cos-7 or baculovirus expressed) (from UniProt P17936 28-291) |  | binds
